Measured values as given in patent US20090022803A1, “Oral Formulations For Delivery of Catecholic Butanes Including Ndga Compounds” (priority 2005, published 2009).
Read-outs that look alike come from different tables or passages of the source. This continues a long series; more values of the same kind are listed elsewhere.

Type: physicochemical
Protocol: A 10 mL solution of M4N at a concentration of about 10 mg/mL in 40% BP-β-CD was made as follows. About 10 mL of the 40% HP-β-CD solution were added to a glass beaker containing a stir bar. The beaker was placed on a magnetic plate and the stir bar was set to stir at medium speed. About […] of M4N were slowly added to the 40% HP-β-CD in the center of the beaker with the aid of a spatula. The M4N/40% HP-β-CD mixture was stirred for 2 hr or until all M4N was uniformly suspended without any clumps being present. The M4N/40% HP-β-CD mixture was optionally heated at 80° C. for about 30 min. (or longer if a larger volume of solution was desired, for example, 1 hr at 80° C. for 100 mL of the M4N/HP-β-CD mixture), or longer as needed to ensure complete dissolution of M4N. […] The final M4N/40% HP-β-CD solution was stored at room temperature and was kept protected from light. This process may be scaled up or down to obtain the requisite volume or concentration of M4N. Formulations containing M4N in other cyclodextrin solutions may be similarly made, such as, for example, by substituting HP-β-CD in the process described above with other cyclodextrins. […]
A 10 mL solution of M4N at a concentration of about 10 mg/mL in 50% HP-β-CD/0.5% HPMC was made as follows. About 10 mL of the 50% HP-β-CD/0.5% HPMC solution were added to a glass beaker containing a stir bar. The beaker was placed on a magnetic plate and the stir bar was set to stir at medium speed. About 100 mg of M4N were slowly added to the 50% HP-β-CD/0.5% HPMC in the center of the beaker with the aid of a spatula. The M4N/50% HP-β-CD/0.5% HPMC mixture was stirred for 24 hr or until all M4N was uniformly suspended without any clumps being present. The M4N/50% HP-β-CD/0.5% HPMC mixture was heated at about 90° C. for about 30 min. (or longer if a larger volume of solution was desired, for example, 1 hr at 90° C. for 500 mL of the M4N/50% HP-β-CD/0.5% HPMC mixture), or longer as needed to ensure complete dissolution of M4N. […] The final M4N/50% HP-β-CD/0.5% HPMC solution was stored at room temperature and was kept protected from light.
A 10 mL solution of M4N at a concentration of about 20 mg/mL in 5% EC (w/v) (the “EC formulation”) was made as follows. About 10 mL of 5% EC formulation, made as described above, were added to a glass beaker containing a stir bar. The beaker was placed on a magnetic plate and the stir bar was set to stir at medium speed, and covered with a round Teflon® cover. About 200 mg of M4N were slowly added to the 5% EC formulation in the center of the beaker with the aid of a spatula to prevent M4N from sticking to the beaker wall. The M4N/EC mixture was stirred for 2 hr or until all M4N had dissolved or was uniformly suspended without any clumps being present. The M4N/EC mixture was heated at about 60° C. for about 30 min. (or longer if a larger volume of solution was desired, for example, 1 hr at 60° C. for 500 mL of the M4N/EC mixture), or longer as needed to ensure complete dissolution of M4N. […] The final M4N/EC solution was stored at room temperature and was kept protected from light.
A 10 mL solution of M4N at a concentration of about 50 mg/mL in sesame oil was made as follows. About 10 mL of sesame oil were added to a glass beaker containing a stir bar. The beaker was placed on a magnetic plate and the stir bar was set to stir at medium speed. About 500 mg of M4N were slowly added to the sesame oil in the center of the beaker with the aid of a spatula to prevent M4N from sticking to the beaker wall. The M4N/sesame oil mixture was stirred for about 2 hr or until all M4N had dissolved or was uniformly suspended without any clump being present. The M4N/sesame oil mixture was heated at about 60° C. for about 30 min. (or longer if a larger volume of solution was desired, for example, 1 hr at 60° C. for 500 mL of the M4N/sesame oil mixture), or longer as need to ensure complete dissolution of M4N. […]
For Dissolution After Cool Down in this document: key: N represents 'No'; Y represents 'Yes.'.

COc1ccc(C[C@@H](C)[C@@H](C)Cc2ccc(OC)c(OC)c2)cc1OC [Formulation M4N, meso-1,4-bis(3,4-dimethoxyphenyl)-2,3-dimethylbutane]
Dissolution After Rotation (M4N 60 mg/mL in Corn Oil): N | Dissolution After Heating (M4N 60 mg/mL in Corn Oil, 60° C.): Y at 60 °C | Dissolution After Rotation (M4N 60 mg/mL in Peppermint Oil): N | Dissolution After Heating (M4N 60 mg/mL in Peppermint Oil, 40° C.): Y at 40 °C | Dissolution After Rotation (M4N 100 mg/g in 50% Soybean Oil, 50% Beeswax (w/w)): N | Dissolution After Heating (M4N 100 mg/g in 50% Soybean Oil, 50% Beeswax (w/w), 60° C.): Y at 60 °C | Dissolution After Heating (M4N 100 mg/mL in 2.3% HPMC, 90° C.): N at 90 °C | Dissolution After Heating (M4N 100 mg/mL in 5% EC in EtOH, 90° C.): Y at 90 °C | Dissolution After Rotation (M4N 100 mg/mL in 50% Peppermint Oil, 50% PEG 400): N | Dissolution After Heating (M4N 100 mg/mL in 50% Peppermint Oil, 50% PEG 400, 40° C.): Y at 40 °C | Dissolution After Rotation (M4N 100 mg/mL in Camillia Oil): N | Dissolution After Heating (M4N 100 mg/mL in Camillia Oil, 60° C.): Y at 60 °C | Dissolution After Rotation (M4N 100 mg/mL in Corn Oil): N | Dissolution After Heating (M4N 100 mg/mL in Corn Oil, 60° C.): Y at 60 °C | Dissolution After Rotation (M4N 100 mg/mL in Eugenol, Beeswax, Olive Oil, 0.5% (v/v) Eugenol): N | Dissolution After Heating (M4N 100 mg/mL in Eugenol, Beeswax, Olive Oil, 0.5% (v/v) Eugenol, 50° C.): Y at 50 °C | Dissolution After Rotation (M4N 100 mg/mL in Mineral Oil): N | Dissolution After Heating (M4N 100 mg/mL in Mineral Oil, 60° C.): Y at 60 °C | Dissolution After Rotation (M4N 100 mg/mL in Peppermint Oil): N | Dissolution After Heating (M4N 100 mg/mL in Peppermint Oil, 40° C.): Y at 40 °C | Dissolution After Rotation (M4N 125 mg/mL in 50% Peppermint Oil, 50% PEG 300): N | Dissolution After Heating (M4N 125 mg/mL in 50% Peppermint Oil, 50% PEG 300, 35° C.): Y at 35 °C | Dissolution After Rotation (M4N 125 mg/mL in 50% Peppermint Oil, 50% PEG 400): N | Dissolution After Heating (M4N 125 mg/mL in 50% Peppermint Oil, 50% PEG 400, 40° C.): Y at 40 °C | Dissolution After Rotation (M4N 125 mg/mL in 50% Peppermint Oil, 50% Tween ® 20): N | Dissolution After Heating (M4N 125 mg/mL in 50% Peppermint Oil, 50% Tween ® 20, 40° C.): Y at 40 °C | Dissolution After Rotation (M4N 125 mg/mL in Peppermint Oil): N | Dissolution After Heating (M4N 125 mg/mL in Peppermint Oil, 40° C.): Y at 40 °C | Dissolution After Rotation (M4N 200 mg/g in 75% Soybean Oil, 25% Beeswax (w/w)): N | Dissolution After Heating (M4N 200 mg/g in 75% Soybean Oil, 25% Beeswax (w/w), 60° C.): Y at 60 °C | Dissolution After Rotation (M4N 200 mg/g in 90% Olive Oil, 10% Beeswax (w/w)): N | Dissolution After Heating (M4N 200 mg/g in 90% Olive Oil, 10% Beeswax (w/w), 60° C.): Y at 60 °C | Dissolution After Rotation (M4N 200 mg/g in 90% Soybean Oil, 10% Beeswax (w/w)): N | Dissolution After Heating (M4N 200 mg/g in 90% Soybean Oil, 10% Beeswax (w/w), 60° C.): Y at 60 °C | Dissolution After Rotation (M4N 200 mg/g in 95% Olive Oil, 5% Beeswax (w/w)): N | Dissolution After Heating (M4N 200 mg/g in 95% Olive Oil, 5% Beeswax (w/w), 60° C.): Y at 60 °C | Dissolution After Rotation (M4N 200 mg/g in 95% Soybean Oil, 5% Beeswax (w/w)): N | Dissolution After Heating (M4N 200 mg/g in 95% Soybean Oil, 5% Beeswax (w/w), 60° C.): Y at 60 °C | Dissolution After Rotation (M4N 200 mg/mL in Mineral Oil): N | Dissolution After Heating (M4N 200 mg/mL in Mineral Oil, 60° C.): Y at 60 °C | Dissolution After Heating (PEG 300 33%, M4N 10 mg/mL, heating at 50° C.): N at | Dissolution After Heating (PEG 300 100%, M4N 25 mg/mL, heating at 50° C.): Y at | Dissolution After Cool-Down (PEG 300 100%, M4N 30 mg/mL, after heating at 50° C.): Y | Dissolution After Heating (PEG 300 100%, M4N 30 mg/mL, heating at 50° C.): Y at | Dissolution After Cool-Down (PEG 300 100%, M4N 40 mg/mL, after heating at 50° C.): Y | Dissolution After Heating (PEG 300 100%, M4N 40 mg/mL, heating at 50° C.): Y at | Dissolution After Cool-Down (PEG 300 100%, M4N 50 mg/mL, after heating at 60° C.): Y | Dissolution After Heating (PEG 300 100%, M4N 50 mg/mL, heating at 60° C.): Y at | Dissolution After Cool-Down (PEG 300 100%, M4N 100 mg/mL, after heating at 60° C.): N | Dissolution After Heating (PEG 300 100%, M4N 100 mg/mL, heating at 60° C.): Y at | Dissolution After Heating (PEG 400 5%, M4N 10 mg/mL, heating at 50° C.): N at | Dissolution After Heating (PEG 400 100%, M4N 25 mg/mL, heating at 50° C.): Y at | Dissolution After Heating (PEG 400 100%, M4N 30 mg/mL, heating at 50° C.): Y at | Dissolution After Heating (PEG 400 100%, M4N 40 mg/mL, heating at 50° C.): Y at | Dissolution After Heating (PEG 400 100%, M4N 50 mg/mL, heating at 60° C.): Y at | Dissolution After Heating (PEG 400 100%, M4N 100 mg/mL, heating at 60° C.): Y at | Dissolution After Rotation (PEG 400 mono-laurate 100%, M4N 20 mg/mL): N | Dissolution After Heating (PEG 400 mono-laurate 100%, M4N 20 mg/mL, heating at 50° C.): Y at | Dissolution After Rotation (PEG 400 mono-laurate 100%, M4N 50 mg/mL): N | Dissolution After Heating (PEG 400 mono-laurate 100%, M4N 50 mg/mL, heating at 50° C.): Y at | Dissolution After Rotation (PVP 15% (w/v), M4N 1 mg/mL): N | Dissolution After Heating (PVP 15% (w/v), M4N 1 mg/mL, heating at 90° C.): N at | Dissolution After Rotation (PVP 15% (w/v), M4N 10 mg/mL): N | Dissolution After Heating (PVP 15% (w/v), M4N 10 mg/mL, heating at 90° C.): N at | Dissolution After Rotation (Propylene Glycol 100% (w/v), M4N 1 mg/mL): N | Dissolution After Heating (Propylene Glycol 100% (w/v), M4N 1 mg/mL, heating at 55° C.): Y at | Dissolution After Rotation (Propylene Glycol 100% (w/v), M4N 10 mg/mL): N | Dissolution After Heating (Propylene Glycol 100% (w/v), M4N 10 mg/mL, heating at 55° C.): Y at | Dissolution After Rotation (Propylene Glycol 100% (w/v), M4N 20 mg/mL): N | Dissolution After Heating (Propylene Glycol 100% (w/v), M4N 20 mg/mL, heating at 55° C.): Y at | Dissolution After Rotation (TPGS 20% (w/v), M4N 1 mg/ml): N | Dissolution After Cool Down (TPGS 20% (w/v), M4N 1 mg/ml, after heating at 30° C.): Creamy | Dissolution After Heating (TPGS 20% (w/v), M4N 1 mg/ml, heating at 30° C.): Y at 30 °C | Dissolution After Rotation (TPGS 20% (w/v), M4N 10 mg/ml): N | Dissolution After Cool Down (TPGS 20% (w/v), M4N 10 mg/ml, after heating at 60° C.): Creamy | Dissolution After Heating (TPGS 20% (w/v), M4N 10 mg/ml, heating at 60° C.): Y at 60 °C | Dissolution After Rotation (TPGS 20% (w/v), M4N 60 mg/ml): Suspension | Dissolution After Rotation (TPGS 20% (w/v), M4N 100 mg/ml): Suspension | Dissolution After Rotation (TPGS 20% (w/v), M4N 125 mg/ml): N | Dissolution After Cool Down (TPGS 20% (w/v), M4N 125 mg/ml, after heating at 60° C.): Creamy | Dissolution After Heating (TPGS 20% (w/v), M4N 125 mg/ml, heating at 60° C.): Y at 60 °C | Dissolution After Rotation (TPGS 20% (w/v), M4N 200 mg/ml): N | Dissolution After Cool Down (TPGS 20% (w/v), M4N 200 mg/ml, after heating at 60° C.): Creamy | Dissolution After Heating (TPGS 20% (w/v), M4N 200 mg/ml, heating at 60° C.): Y at 60 °C | Dissolution After Cool Down (Tween ® 20 100% (v/v), M4N 10 mg/ml, after heating at 50° C.): Y | Dissolution After Cool Down (Tween ® 20 100% (v/v), M4N 20 mg/ml, after heating at 50° C.): Y | Dissolution After Cool Down (Tween ® 20 100% (v/v), M4N 40 mg/ml, after heating at 50° C.): Y | Dissolution After Cool Down (Tween ® 20 100% (v/v), M4N 60 mg/ml, after heating at 50° C.): Y | Dissolution After Cool Down (Tween ® 20 100% (v/v), M4N 80 mg/ml, after heating at 50° C.): N | Dissolution After Cool Down (Tween ® 20 100% (v/v), M4N 100 mg/ml, after heating at 50° C.): N | Dissolution After Cool Down (Tween ® 80 100% (v/v), M4N 10 mg/ml, after heating at 50° C.): Y | Dissolution After Cool Down (Tween ® 80 100% (v/v), M4N 50 mg/ml, after heating at 50° C.): Y
